Measured values taken from paper PMC7910587.
No constants are given. Whether binding was seen depends on the method and setting. Binding seen in cells or lysates may run through a third protein. Binding calls can cover weak binding; strength is not graded here.

Chains of the proteins cited; added tags and fusions are not shown.
UniProt P46940: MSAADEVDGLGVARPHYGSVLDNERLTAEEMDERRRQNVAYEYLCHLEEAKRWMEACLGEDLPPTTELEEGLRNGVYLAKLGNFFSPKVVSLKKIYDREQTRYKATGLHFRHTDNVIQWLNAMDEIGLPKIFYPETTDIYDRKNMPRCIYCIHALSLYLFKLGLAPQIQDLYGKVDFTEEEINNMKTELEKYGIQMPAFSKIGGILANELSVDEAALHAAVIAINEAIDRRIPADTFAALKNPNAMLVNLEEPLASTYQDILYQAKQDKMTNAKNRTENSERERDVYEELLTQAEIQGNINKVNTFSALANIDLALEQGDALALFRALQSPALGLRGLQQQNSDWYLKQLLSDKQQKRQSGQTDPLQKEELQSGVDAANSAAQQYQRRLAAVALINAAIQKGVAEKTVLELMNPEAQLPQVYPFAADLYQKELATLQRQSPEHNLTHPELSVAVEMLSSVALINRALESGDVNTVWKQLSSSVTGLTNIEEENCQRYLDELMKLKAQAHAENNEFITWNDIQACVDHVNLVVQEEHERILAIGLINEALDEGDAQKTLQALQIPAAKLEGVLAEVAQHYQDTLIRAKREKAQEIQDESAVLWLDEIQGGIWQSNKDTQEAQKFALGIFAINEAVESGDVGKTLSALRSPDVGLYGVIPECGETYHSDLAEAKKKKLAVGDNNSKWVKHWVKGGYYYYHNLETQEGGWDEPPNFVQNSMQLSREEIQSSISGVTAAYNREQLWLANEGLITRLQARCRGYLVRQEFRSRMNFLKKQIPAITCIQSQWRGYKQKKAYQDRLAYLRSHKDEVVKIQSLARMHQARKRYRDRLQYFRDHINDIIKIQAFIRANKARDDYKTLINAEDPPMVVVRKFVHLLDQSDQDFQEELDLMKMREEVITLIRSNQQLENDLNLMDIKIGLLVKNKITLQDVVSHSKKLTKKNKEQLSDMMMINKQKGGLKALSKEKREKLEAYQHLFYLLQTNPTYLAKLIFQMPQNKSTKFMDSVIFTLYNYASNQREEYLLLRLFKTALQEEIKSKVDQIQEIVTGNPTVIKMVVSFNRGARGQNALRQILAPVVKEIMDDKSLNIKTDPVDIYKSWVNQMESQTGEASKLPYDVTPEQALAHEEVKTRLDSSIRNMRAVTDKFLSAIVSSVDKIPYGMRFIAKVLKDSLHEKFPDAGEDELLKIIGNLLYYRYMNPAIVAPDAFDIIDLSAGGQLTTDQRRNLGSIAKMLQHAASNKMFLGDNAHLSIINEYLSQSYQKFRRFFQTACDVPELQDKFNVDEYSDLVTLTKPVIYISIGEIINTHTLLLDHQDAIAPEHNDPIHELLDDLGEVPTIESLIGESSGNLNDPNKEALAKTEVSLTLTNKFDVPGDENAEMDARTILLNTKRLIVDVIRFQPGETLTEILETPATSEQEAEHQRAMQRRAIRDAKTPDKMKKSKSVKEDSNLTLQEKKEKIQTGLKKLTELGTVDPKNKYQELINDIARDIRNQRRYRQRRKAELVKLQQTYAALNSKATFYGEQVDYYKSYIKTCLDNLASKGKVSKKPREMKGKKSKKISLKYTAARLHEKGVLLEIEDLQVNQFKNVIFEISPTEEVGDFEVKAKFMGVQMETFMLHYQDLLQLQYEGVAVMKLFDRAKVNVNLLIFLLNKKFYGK

Molecular target: CiaD∆MKD-FLAG (Campylobacter jejuni) (UniProt Q0PAA2)
Experiment: co-IP; INT 407 cells infected for 2 h with the C. jejuni ∆ciaD mutant harboring ciaD-FLAG or ciaD∆MKD-FLAG; lysate on anti-FLAG M2 affinity gel; immunoblot for IQGAP1

## IQGAP1 (Ras GTPase-activating-like protein IQGAP1) (from UniProt P46940 1-1657)
  binding: binds
